Paper PMC5592244
No constants are given. Whether binding was seen depends on the method and setting. In cells and extracts the contact can be indirect. Some results given as binding are weak or reduced against the parent protein; the word gives no strength.

Amino acid sequences for entries named in this document (tags omitted).
UniProt P35222: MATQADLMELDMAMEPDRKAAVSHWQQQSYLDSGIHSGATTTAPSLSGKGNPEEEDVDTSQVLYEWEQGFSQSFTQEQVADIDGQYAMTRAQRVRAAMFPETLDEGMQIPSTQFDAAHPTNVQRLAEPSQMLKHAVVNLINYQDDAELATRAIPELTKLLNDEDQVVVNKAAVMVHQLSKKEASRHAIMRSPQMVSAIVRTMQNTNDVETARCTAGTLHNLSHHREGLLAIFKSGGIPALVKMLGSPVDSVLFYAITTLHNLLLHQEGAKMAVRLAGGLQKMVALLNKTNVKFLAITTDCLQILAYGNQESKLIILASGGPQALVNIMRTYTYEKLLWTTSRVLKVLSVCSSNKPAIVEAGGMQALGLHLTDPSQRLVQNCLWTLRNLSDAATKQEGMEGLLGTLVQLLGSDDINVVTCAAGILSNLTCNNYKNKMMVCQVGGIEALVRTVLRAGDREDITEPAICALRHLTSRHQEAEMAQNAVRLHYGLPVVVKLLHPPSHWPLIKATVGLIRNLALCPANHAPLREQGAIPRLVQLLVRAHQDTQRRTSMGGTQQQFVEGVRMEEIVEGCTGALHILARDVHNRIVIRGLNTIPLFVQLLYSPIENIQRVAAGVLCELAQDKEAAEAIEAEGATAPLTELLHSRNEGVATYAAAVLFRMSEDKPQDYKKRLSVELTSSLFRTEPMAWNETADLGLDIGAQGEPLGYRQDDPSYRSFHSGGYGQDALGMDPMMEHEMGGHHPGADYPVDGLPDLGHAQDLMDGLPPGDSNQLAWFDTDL
UniProt Q04726: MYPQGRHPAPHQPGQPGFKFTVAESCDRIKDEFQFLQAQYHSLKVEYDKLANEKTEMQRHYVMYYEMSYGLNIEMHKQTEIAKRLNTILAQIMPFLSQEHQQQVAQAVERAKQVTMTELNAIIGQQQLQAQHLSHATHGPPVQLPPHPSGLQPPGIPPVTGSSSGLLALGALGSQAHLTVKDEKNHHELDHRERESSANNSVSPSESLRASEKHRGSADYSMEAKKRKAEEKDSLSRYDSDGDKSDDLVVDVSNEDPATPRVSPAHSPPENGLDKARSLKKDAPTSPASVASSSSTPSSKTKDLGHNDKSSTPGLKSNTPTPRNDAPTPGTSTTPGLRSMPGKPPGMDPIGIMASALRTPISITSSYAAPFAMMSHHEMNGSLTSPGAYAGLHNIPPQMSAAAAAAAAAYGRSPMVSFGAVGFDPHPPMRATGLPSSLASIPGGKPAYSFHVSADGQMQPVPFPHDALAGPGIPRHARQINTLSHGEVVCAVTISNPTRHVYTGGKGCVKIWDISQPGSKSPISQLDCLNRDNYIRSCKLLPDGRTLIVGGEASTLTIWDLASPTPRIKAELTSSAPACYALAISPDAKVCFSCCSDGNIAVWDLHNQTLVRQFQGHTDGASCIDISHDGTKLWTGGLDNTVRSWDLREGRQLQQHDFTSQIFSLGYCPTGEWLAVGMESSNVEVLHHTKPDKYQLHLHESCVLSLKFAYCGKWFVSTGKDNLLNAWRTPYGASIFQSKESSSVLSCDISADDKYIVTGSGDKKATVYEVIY

Legend:
[1] = biological target: GFP-UBR5-CS (human) (UniProt O95071); assay: co-IP; co-expressed tagged proteins in HEK293T or UBR5 KO cells, with or without 6 hr of 20 mM LiCl; lysis buffer 20 mM Tris-HCl pH 7.4, 200 mM NaCl, 10% glycerol, 0.2% Triton X-100; affinity gel (Flag- or HA-) or GFP-trap 90 min at 4°C; western blot
[2] = biological target: GFP-UBR5-CS (human) (UniProt O95071); assay: co-IP; as a2, UBR5 KO cells not stimulated with LiCl (mock-treated)
[3] = biological target: GFP-UBR5-CS (human) (UniProt O95071); assay: co-IP; as a2, β-catenin-depleted UBR5 KO cells (transient knockdown by CRISPR/Cas9 single-guide RNAs, puromycin selection)

| binding [1] | binding [3] | Substance | binding [2] |
| --- | --- | --- | --- |
| binds | – | β-catenin (endogenous) (from UniProt P35222 1-781) | no binding (condition: cells not stimulated with LiCl) |
| binds | binds weakly | HA-TLE3 (from UniProt Q04726 1-772) | – |
